The other results are listed elsewhere or left out.
These sequences were tested against OsWRKY34 (Oryza sativa, UniProt Q0JBA9 1-250) (assay: protein-binding microarray (RPBM); PBS, 2% BSA, 51.3 ng/ul salmon testes DNA, 50 uM zinc acetate, 200 nM TF, 25 C, 1 h; high values mean tight binding). Settings: protein: recombinant; tags: N-terminal polyhistidine and DsRed monomer fusion (pET32a); label: CyDye5-dUTP incorporated in the synthesized complementary strand; 3' TTTTT single-stranded linker to array surface; dsDNA, one strand shown.
How it was run: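 The binding signal for each feature is its fluorescence intensity in arbitrary units. An Axon 4000B scanner was used to read a custom Agilent array that had been made double-stranded with Cy5-dUTP primer extension, blocked with 2% BSA, incubated at 25 °C for 1 h with 200 nM protein in PBS, 2% BSA, salmon testes DNA and 50 µM zinc acetate, and washed. The protein was an N-terminal polyhistidine–DsRed transcription factor fusion from E. coli BL21-CodonPlus, purified on Ni–NTA.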

Chains of the proteins cited; added tags and fusions are not shown.
UniProt Q0JBA9, entry or part of it: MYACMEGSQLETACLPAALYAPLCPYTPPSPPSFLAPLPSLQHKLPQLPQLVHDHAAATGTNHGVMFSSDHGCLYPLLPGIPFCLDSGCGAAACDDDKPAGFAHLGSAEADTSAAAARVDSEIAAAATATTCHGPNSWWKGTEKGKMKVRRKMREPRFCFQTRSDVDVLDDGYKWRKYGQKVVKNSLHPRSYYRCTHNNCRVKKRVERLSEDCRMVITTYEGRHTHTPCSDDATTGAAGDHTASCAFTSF

Row | Sequence | binding signal
1 | GTTCATTATTGCCGTTTACTAATACCATGTCCACACGGCCCGGAGTCACCTAGTGCAG | 9710 fluorescence intensity (a.u.)
2 | GCAACCACTGTCTCGCTCTCCGCCGCCATCGCCGCCGCCGCGGAGTCACCTAGTGCAG | 10500 fluorescence intensity (a.u.)
3 | TATATATATATATATATATATATAATGTTTCATCACCTGTCGGAGTCACCTAGTGCAG | 11400 fluorescence intensity (a.u.)
4 | TTCCCTTCTGCCGTACTGTTTCAAATCTCAACCATTTGTACGGAGTCACCTAGTGCAG | 10400 fluorescence intensity (a.u.)
5 | AAATCACATACTCTTTCTTCTTCTTTTTGTTGTATGAAGTCGGAGTCACCTAGTGCAG | 10100 fluorescence intensity (a.u.)
6 | CCAAATCAATCAGCCACCTCCAGTGCGTCGTTCTCTCGACCGGAGTCACCTAGTGCAG | 8410 fluorescence intensity (a.u.)
7 | GTAGTCTTTTTCTTCTTTGTACTTATCGTTTAAAAATTGACGGAGTCACCTAGTGCAG | 8230 fluorescence intensity (a.u.)
8 | CTCGGGAGAGGGGAGGCGTAGATTCTTCTGTTGCTTCAGTCGGAGTCACCTAGTGCAG | 10300 fluorescence intensity (a.u.)
9 | CTTCCAATTCATTCTATAGTCTGTACAACTATAACTTTTACGGAGTCACCTAGTGCAG | 9330 fluorescence intensity (a.u.)
10 | GATCTGGTGTGTTAATTTGGATTTGTGTTTGTCCTTTTTCCGGAGTCACCTAGTGCAG | 14800 fluorescence intensity (a.u.)
11 | AACACAGCACCTAGTACCGCATGATCACCTATATATACACCGGAGTCACCTAGTGCAG | 12300 fluorescence intensity (a.u.)
12 | TGAGAACAACCTGAACCTCACAACTCGTACTATCCCTTTGCGGAGTCACCTAGTGCAG | 8440 fluorescence intensity (a.u.)
13 | ACGATACATCGGTGCGGTTTGGTTTGGTGAATCCTCCTCGCGGAGTCACCTAGTGCAG | 8100 fluorescence intensity (a.u.)
14 | GGTCGCTGTCGTTGGCGGGTGCGGGGAGGTGGCGGTTACGCGGAGTCACCTAGTGCAG | 12600 fluorescence intensity (a.u.)
15 | TACCCGTGACCAACCCGACCCGTTGCCATCCCTATTTAGGCGGAGTCACCTAGTGCAG | 8720 fluorescence intensity (a.u.)
16 | CGGAGATCCGCGGCGAGGAGGGGAGGGAGGGGAAGCAAGCCGGAGTCACCTAGTGCAG | 10600 fluorescence intensity (a.u.)
17 | CCGATACCGTATCGCTCGCGTATCCCACGTATCGCCGTATCGGAGTCACCTAGTGCAG | 8130 fluorescence intensity (a.u.)
18 | TTGTTCATTATACCGGTGGTTATAGTTGGATTCAGGTGTACGGAGTCACCTAGTGCAG | 8500 fluorescence intensity (a.u.)
19 | CCCAAAGTCAACCACATACGTGCTGTTGTGTAGTCACATTCGGAGTCACCTAGTGCAG | 9330 fluorescence intensity (a.u.)
20 | TTGGTAGTGTTGGTTGTGTTTAGTTTGTTAACTTATCAAACGGAGTCACCTAGTGCAG | 8690 fluorescence intensity (a.u.)
21 | CCTCTACAACCACCCACTATCGTTGCCACCTCCCACAAACCGGAGTCACCTAGTGCAG | 12300 fluorescence intensity (a.u.)

Row | Sequence | binding signal
22 | TTCCTACTGTATCTGCGTCGTGATATGATCTCTAACTTTGCGGAGTCACCTAGTGCAG | 9330 fluorescence intensity (a.u.)
23 | CACGCTCGCCTTCATCGCCGCTCTGTTCAACGAGGAGCTCCGGAGTCACCTAGTGCAG | 10700 fluorescence intensity (a.u.)
24 | TCCTGCAATCTCACATTTGTCGAACCTAGCAGAACTTTACCGGAGTCACCTAGTGCAG | 9760 fluorescence intensity (a.u.)
25 | TATCGCGTTACTGGTATGTTCCTGTTCCTGACATTCATGACGGAGTCACCTAGTGCAG | 13600 fluorescence intensity (a.u.)
26 | TCTACCTGGCCCCACATGTCATCCACTCGTGCTACGCAGCCGGAGTCACCTAGTGCAG | 9910 fluorescence intensity (a.u.)
27 | TCGGCCCGAGCGGTGGCGGTGGCGGTGGCGGAGGAGGAGGCGGAGTCACCTAGTGCAG | 10100 fluorescence intensity (a.u.)
28 | AGCCGTCACATTTTCCAGACTCCACACTGCCACCTTGTGCCGGAGTCACCTAGTGCAG | 8410 fluorescence intensity (a.u.)
29 | AGCTCTTTCTATGCGTTACCGCCTGCGTGCAGCCGTTCTTCGGAGTCACCTAGTGCAG | 9190 fluorescence intensity (a.u.)
30 | TCTGCTTCACTGTATTTTTGTCCAACAATTCCATGACATGCGGAGTCACCTAGTGCAG | 8550 fluorescence intensity (a.u.)
31 | TGCGGCAAGGACTCCGCTGCCTGCTCACCACCATCACGCACGGAGTCACCTAGTGCAG | 8100 fluorescence intensity (a.u.)
32 | CTTCACAGGCTTCAGGCCTCTTGTTGACCATGACCTAACTCGGAGTCACCTAGTGCAG | 10000 fluorescence intensity (a.u.)
33 | AGGCTGTGTTTTTTTTGGAGGGGTTGAAAATCCTTCCCATCGGAGTCACCTAGTGCAG | 12100 fluorescence intensity (a.u.)
34 | GTCATTTGACTTTTTTTGTCAAATACTTAAAATTTCTTAACGGAGTCACCTAGTGCAG | 9040 fluorescence intensity (a.u.)
35 | GCCTTTGCTCCGCTCCACAGCTGGTCGCCACCGTCGACCTCGGAGTCACCTAGTGCAG | 10500 fluorescence intensity (a.u.)
36 | ATAATTATTTCAACAATGTGTTAATTTTTTTGGTAAATTTCGGAGTCACCTAGTGCAG | 8340 fluorescence intensity (a.u.)
37 | TCTTTTTGTGTATCTTAGCTTATCTTATCTTCTCGAATTCCGGAGTCACCTAGTGCAG | 10700 fluorescence intensity (a.u.)
38 | ATGTCTTTTTCTGAACCTCCTTGCCCTACACCACTTCCAACGGAGTCACCTAGTGCAG | 8410 fluorescence intensity (a.u.)
39 | AACTGCACTTATTTTGTGACGGAGGTAGTAGACTTTTTTTCGGAGTCACCTAGTGCAG | 9060 fluorescence intensity (a.u.)
40 | TGACAATCTCCGTTTCGTCTTCTTCTTCTTCTTCTCCGCCCGGAGTCACCTAGTGCAG | 8410 fluorescence intensity (a.u.)
41 | TTTGGTTCACGCGGCGCGGGCGGGGAGTGGGAGGGGCATGCGGAGTCACCTAGTGCAG | 24100 fluorescence intensity (a.u.)
42 | CATCTCGCCGTCCACCGCCCACCACTCCGACTTCTTCGCGCGGAGTCACCTAGTGCAG | 9600 fluorescence intensity (a.u.)

Three entries from above, with each value named:
TGCGGCAAGGACTCCGCTGCCTGCTCACCACCATCACGCACGGAGTCACCTAGTGCAG
  binding signal: 8100 fluorescence intensity (a.u.)
ATGTCTTTTTCTGAACCTCCTTGCCCTACACCACTTCCAACGGAGTCACCTAGTGCAG
  binding signal: 8410 fluorescence intensity (a.u.)
TTTGGTTCACGCGGCGCGGGCGGGGAGTGGGAGGGGCATGCGGAGTCACCTAGTGCAG
  binding signal: 24100 fluorescence intensity (a.u.)

Reference: publication PMC7819943, “Rice protein-binding microarrays: a tool to detect cis-acting elements near promoter regions in rice”
